{"source": "the supplement of paper PMC11348887", "note": "This is one part of the list. Most entries show no effect beyond the scatter of the controls."}
{"system": "hPSC-derived cortical neurons (WA09)", "experiment": "KCl-induced FOS+/EGR-1+ double-positive nuclei fraction z-score (KCl minus unstimulated); higher = stronger activity-induced IEG response", "conditions": "5 µM; treatment: days 7-14 after plating, readout day 21"}
{"smiles": "O=c1cc(-c2ccc(O)cc2)oc2cc(O)cc(O)c12", "note": "[Apigenin]", "KCl-induced FOS+/EGR-1+ double-positive nuclei fraction z-score": -0.0755}
{"smiles": "CN1CCN(S(=O)(=O)c2ccc(-c3cnc(N)c(C(=O)Nc4cccnc4)n3)cc2)CC1", "KCl-induced FOS+/EGR-1+ double-positive nuclei fraction z-score": -0.0614}
{"smiles": "COc1ccc(/C=C\\c2cc(OC)c(OC)c(OC)c2)cc1O", "note": "[Combretastatin A4]", "KCl-induced FOS+/EGR-1+ double-positive nuclei fraction z-score": -6.04}
{"smiles": "C[C@H]1COC2=C1C(=O)C(=O)c1c2ccc2c1CCCC2(C)C", "note": "[Cryptotanshinone]", "KCl-induced FOS+/EGR-1+ double-positive nuclei fraction z-score": -0.154}
{"smiles": "CC(C)C[C@H](NC(=O)[C@@H](NC(=O)c1cccc(-c2ccccc2)n1)[C@@H](C)O)B(O)O", "KCl-induced FOS+/EGR-1+ double-positive nuclei fraction z-score": -0.214}
